Data taken from PubChem BioAssay.
Inconclusive means that the source gave no clear call. Such entries were picked first, then a sample of the others. Where the call is inconclusive, the potency comes from a doubtful curve fit. The source made the active and inactive calls. Cut-off not given; nearly all actives show AC50 up to about 30 µM.

Assay: growth inhibition of DIPG glioma cells, dose response, cell-based, SU-DIPG-IV, MIPE4.0, CellTiter-Glo, qHTS (AID 1347063);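 further: compound exposure lasted 48 hours before the viability readout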
Conditions: SU-DIPG-IV viability, CellTiter-Glo ATP luminescence

Row | Structure (SMILES) | outcome | AC50
1 | CCCCCCCCCCCCCCCCCCCCCCO | inactive | 
2 | O=C(c1ccc(/C=C/c2n[nH]c3ccccc23)cc1)N1CCNCC1 |  | inconclusive: 7.43 µM [cytotoxic]
3 | CC(C)C[C@H](NC(=O)c1cc2ccccc2s1)C(=O)N1CCN(C(=O)[C@H](CO)NS(=O)(=O)c2ccc(Cl)cc2Cl)CC1 |  | active: 20.9 µM
4 | CN(C)CCCNC(=O)c1ccc(-c2cc(O)c3ncccc3c2)cc1 | inactive | 
5 | CCOC(=O)[C@H]1O[C@@H]1C(=O)N[C@@H](CC(C)C)C(=O)NCCC(C)C | inactive | 
6 | CN(C)CCc1c[nH]c2ccc(CS(=O)(=O)N3CCCC3)cc12 |  | inconclusive: 0.00105 µM
7 | CN(C)CC(C)(C)CNc1nn2c(-c3ccccc3)nnc2cc1C1CCC1 |  | inconclusive: 2.96 µM [cytotoxic]
8 | CC(=O)O[C@H]1C(=O)[C@@]2(C)C([C@H](OC(=O)c3ccccc3)[C@]3(O)C[C@H](OC(=O)[C@H](O)[C@@H](NC(=O)c4ccccc4)c4ccccc4)C(C)=C1C3(C)C)[C@]1(OC(C)=O)CO[C@@H]1C[C@@H]2O (stereo not given in full) | inactive | 
9 | N=C(N)c1ccc(OCCCCCOc2ccc(C(=N)N)cc2)cc1 |  | inconclusive: 8.33 µM [cytotoxic]
10 | COc1ccc(C(=O)CC2(O)C(=O)Nc3c(Cl)ccc(Cl)c32)cc1 (stereo not given) |  | inconclusive: 1.18 µM [cytotoxic]
11 | CNCCCC12CCC(c3ccccc31)c1ccccc12 |  | inconclusive: 29.6 µM [cytotoxic]
12 | C[C@@H]1C[C@H]2[C@@H]3CCC4=CC(=O)C=C[C@]4(C)[C@@]3(Cl)[C@@H](O)C[C@]2(C)[C@@]1(OC(=O)c1ccco1)C(=O)CCl |  | active: 13.2 µM
13 | O=C1CN2Cc3c(ccc(Cl)c3Cl)N=C2N1 |  | inconclusive: 20.9 µM [cytotoxic]
14 | CN(C)c1ccc(C(=C2C=CC(=[N+](C)C)C=C2)c2ccc(N(C)C)cc2)cc1 |  | active: 0.148 µM
15 | CCOC(=O)C1=C(O)C(=O)N(Cc2ccccc2)C1 | inactive | 
16 | CCN(CC)CCOc1ccc(Nc2ncc3cc(-c4c(Cl)cccc4Cl)c(=O)n(C)c3n2)cc1 |  | active: 4.18 µM
17 | NCC1CCC(C(=O)O)CC1 (stereo not given) | inactive | 
18 | CC(C)C[C@H](NC(=O)CNC(=O)c1cc(Cl)ccc1Cl)B(O)O |  | active: 0.118 µM

Row | Structure (SMILES) | outcome | AC50
19 | CN1CCN(C2=Nc3cc(Cl)ccc3Nc3ccccc32)CC1 | inactive | 
20 | COc1cc2nccc(Oc3ccc(NC(=O)NC4CC4)c(Cl)c3)c2cc1C(N)=O |  | active: 4.69 µM
21 | OCCN(CCO)c1nc(N2CCCCC2)c2nc(N(CCO)CCO)nc(N3CCCCC3)c2n1 |  | inconclusive: 29.6 µM [cytotoxic]
22 | CC1=C(C)C(=O)C(C(CCCCCC(=O)O)c2ccccc2)=C(C)C1=O (stereo not given) | inactive | 
23 | Cn1c(=O)c(Oc2ccc(F)cc2F)cc2cnc(NC3CCOCC3)nc21 |  | inconclusive: 3.32 µM [cytotoxic]
24 | Cc1cnc(C(=O)NCCc2ccc(S(=O)(=O)NC(=O)NC3CCCCC3)cc2)cn1 |  | inconclusive: 14.8 µM [cytotoxic]
25 | O=C1CCCC(=O)C1C(=O)c1ccc(C(F)(F)F)cc1[N+](=O)[O-] | inactive | 
26 | CCC[C@@H](C=O)NC(=O)[C@H](CC(C)C)NC(=O)[C@H](CC(C)C)NC(=O)OCc1ccccc1 |  | active: 0.148 µM
27 | CC(=O)OCC(=O)[C@@]1(O)CC[C@H]2[C@@H]3CCC4=CC(=O)CC[C@]4(C)[C@H]3C(=O)C[C@@]21C | inactive | 
28 | Cn1cnc2c(F)c(Nc3ccc(Br)cc3F)c(C(=O)NOCCO)cc21 |  | inconclusive: 5.9 µM [cytotoxic]
29 | CC(C)C[C@@H](C=O)NC(=O)[C@H](CC(C)C)NC(=O)[C@H](CC(C)C)NC(=O)OCc1ccccc1 |  | active: 0.148 µM
30 | Cc1c(-c2ccc(O)cc2)n(Cc2ccc(OCCN3CCCCCC3)cc2)c2ccc(O)cc12 | inactive | 
31 | Cc1c(Cn2c(C)nc3c(C(=O)O)cc(N4CCOCC4)cc32)cccc1C(F)(F)F |  | inconclusive: 2.96 µM [cytotoxic]
32 | CC(C)(C#N)c1cc(Cn2cncn2)cc(C(C)(C)C#N)c1 |  | inconclusive: 4.18 µM [cytotoxic]
33 | COc1cc2ncnc(-n3nc(-c4ccccn4)nc3N)c2cc1OC |  | inconclusive: 1.66 µM [cytotoxic]
34 | NS(=O)(=O)c1cc2c(cc1Cl)NC(C(Cl)Cl)NS2(=O)=O (stereo not given) | inactive | 
35 | NC(=O)c1ccc2[nH]ccc2c1 |  | inconclusive: 0.166 µM [cytotoxic]

Record cards, as listed above:
Cc1cnc(C(=O)NCCc2ccc(S(=O)(=O)NC(=O)NC3CCCCC3)cc2)cn1 is listed as AC50: inconclusive: 14.8 µM [cytotoxic]
Cc1c(Cn2c(C)nc3c(C(=O)O)cc(N4CCOCC4)cc32)cccc1C(F)(F)F is listed as AC50: inconclusive: 2.96 µM [cytotoxic]
